This is one part of the list. Only hits are listed; about a third recur on repeated control peptides.
Assays:
Experiment in all cases: PRISMA enrichment of interactor (LFQ) in peptide spot vs all other peptide spots (log2 fold change); higher = stronger / more specific binding of the interactor to the peptide
ABCE1, P61221 = biological target: ABCE1, P61221
Experimental: (§1)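 PRISMA: 15-aa overlapping tiles (offset 8 aa) of 60 microproteins, plus SOS1/GLUT1 control peptides, were spot-synthesized on cellulose membranes in triplicate. Membranes were incubated with benzonase-treated HEK293T lysate, and bound proteins were identified by LC-MS/MS with LFQ. Enrichment is the log2 fold change of each protein in one spot versus all other spots. Only interactors passing the significance cutoff are listed.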

The chains behind the UniProt entries cited, without tags or fusion partners.
AP2A2, O94973, UniProt O94973, whole entry: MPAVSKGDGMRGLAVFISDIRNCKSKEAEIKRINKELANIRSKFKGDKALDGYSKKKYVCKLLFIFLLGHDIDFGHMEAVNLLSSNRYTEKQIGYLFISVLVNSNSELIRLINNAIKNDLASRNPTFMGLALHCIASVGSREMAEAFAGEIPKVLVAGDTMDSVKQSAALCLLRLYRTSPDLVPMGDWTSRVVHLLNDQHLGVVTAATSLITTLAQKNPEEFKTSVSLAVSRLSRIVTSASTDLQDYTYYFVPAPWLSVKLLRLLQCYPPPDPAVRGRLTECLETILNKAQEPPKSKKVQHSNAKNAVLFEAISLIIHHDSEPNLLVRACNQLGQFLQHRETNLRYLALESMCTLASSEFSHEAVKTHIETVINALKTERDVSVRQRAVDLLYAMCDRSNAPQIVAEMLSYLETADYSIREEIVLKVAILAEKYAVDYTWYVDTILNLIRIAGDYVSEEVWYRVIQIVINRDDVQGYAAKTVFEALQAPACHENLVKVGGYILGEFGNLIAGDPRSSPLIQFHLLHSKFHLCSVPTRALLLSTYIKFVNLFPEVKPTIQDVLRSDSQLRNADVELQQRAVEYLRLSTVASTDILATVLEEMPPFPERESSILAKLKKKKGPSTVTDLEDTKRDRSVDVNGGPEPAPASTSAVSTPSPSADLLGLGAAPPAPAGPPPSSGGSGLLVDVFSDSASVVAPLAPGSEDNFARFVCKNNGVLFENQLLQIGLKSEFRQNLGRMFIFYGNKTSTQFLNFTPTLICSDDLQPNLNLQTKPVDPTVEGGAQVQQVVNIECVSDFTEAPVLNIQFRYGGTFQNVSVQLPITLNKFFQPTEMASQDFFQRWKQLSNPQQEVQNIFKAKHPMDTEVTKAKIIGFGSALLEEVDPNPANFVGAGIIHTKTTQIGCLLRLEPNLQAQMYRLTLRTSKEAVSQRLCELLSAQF
CAMP, P49913, UniProt P49913, whole entry: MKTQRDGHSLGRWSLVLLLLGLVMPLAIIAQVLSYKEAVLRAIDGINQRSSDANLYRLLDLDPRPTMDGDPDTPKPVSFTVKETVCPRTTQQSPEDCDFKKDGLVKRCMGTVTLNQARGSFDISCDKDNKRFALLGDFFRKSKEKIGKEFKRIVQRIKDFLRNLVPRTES
CCT5, P48643, UniProt P48643, whole entry: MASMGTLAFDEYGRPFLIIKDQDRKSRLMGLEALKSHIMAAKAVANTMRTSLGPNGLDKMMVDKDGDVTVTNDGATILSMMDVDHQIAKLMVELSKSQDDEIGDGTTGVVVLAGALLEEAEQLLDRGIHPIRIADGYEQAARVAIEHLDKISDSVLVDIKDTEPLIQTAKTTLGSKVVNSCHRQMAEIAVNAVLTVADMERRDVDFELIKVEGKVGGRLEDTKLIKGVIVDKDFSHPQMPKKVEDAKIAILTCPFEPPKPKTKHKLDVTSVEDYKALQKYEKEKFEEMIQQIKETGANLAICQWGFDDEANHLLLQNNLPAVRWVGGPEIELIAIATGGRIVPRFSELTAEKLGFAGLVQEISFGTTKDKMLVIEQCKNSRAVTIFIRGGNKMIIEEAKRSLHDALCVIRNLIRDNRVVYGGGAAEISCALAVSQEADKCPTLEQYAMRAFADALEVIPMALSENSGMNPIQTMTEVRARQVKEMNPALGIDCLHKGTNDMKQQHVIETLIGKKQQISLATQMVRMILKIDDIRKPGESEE
IGHA1, P01876, UniProt P01876, whole entry: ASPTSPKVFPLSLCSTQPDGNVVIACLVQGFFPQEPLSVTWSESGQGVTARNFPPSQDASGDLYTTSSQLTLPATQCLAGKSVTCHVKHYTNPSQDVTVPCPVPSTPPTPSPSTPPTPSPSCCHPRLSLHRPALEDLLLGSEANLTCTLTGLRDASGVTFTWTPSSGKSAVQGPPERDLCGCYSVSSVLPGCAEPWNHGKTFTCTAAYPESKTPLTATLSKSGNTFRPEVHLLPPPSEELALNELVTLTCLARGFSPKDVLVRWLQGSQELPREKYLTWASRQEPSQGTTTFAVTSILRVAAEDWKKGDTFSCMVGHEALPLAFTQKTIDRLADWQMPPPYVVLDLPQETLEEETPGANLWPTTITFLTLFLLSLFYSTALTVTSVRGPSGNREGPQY
INTS2, Q9H0H0, UniProt Q9H0H0, whole entry: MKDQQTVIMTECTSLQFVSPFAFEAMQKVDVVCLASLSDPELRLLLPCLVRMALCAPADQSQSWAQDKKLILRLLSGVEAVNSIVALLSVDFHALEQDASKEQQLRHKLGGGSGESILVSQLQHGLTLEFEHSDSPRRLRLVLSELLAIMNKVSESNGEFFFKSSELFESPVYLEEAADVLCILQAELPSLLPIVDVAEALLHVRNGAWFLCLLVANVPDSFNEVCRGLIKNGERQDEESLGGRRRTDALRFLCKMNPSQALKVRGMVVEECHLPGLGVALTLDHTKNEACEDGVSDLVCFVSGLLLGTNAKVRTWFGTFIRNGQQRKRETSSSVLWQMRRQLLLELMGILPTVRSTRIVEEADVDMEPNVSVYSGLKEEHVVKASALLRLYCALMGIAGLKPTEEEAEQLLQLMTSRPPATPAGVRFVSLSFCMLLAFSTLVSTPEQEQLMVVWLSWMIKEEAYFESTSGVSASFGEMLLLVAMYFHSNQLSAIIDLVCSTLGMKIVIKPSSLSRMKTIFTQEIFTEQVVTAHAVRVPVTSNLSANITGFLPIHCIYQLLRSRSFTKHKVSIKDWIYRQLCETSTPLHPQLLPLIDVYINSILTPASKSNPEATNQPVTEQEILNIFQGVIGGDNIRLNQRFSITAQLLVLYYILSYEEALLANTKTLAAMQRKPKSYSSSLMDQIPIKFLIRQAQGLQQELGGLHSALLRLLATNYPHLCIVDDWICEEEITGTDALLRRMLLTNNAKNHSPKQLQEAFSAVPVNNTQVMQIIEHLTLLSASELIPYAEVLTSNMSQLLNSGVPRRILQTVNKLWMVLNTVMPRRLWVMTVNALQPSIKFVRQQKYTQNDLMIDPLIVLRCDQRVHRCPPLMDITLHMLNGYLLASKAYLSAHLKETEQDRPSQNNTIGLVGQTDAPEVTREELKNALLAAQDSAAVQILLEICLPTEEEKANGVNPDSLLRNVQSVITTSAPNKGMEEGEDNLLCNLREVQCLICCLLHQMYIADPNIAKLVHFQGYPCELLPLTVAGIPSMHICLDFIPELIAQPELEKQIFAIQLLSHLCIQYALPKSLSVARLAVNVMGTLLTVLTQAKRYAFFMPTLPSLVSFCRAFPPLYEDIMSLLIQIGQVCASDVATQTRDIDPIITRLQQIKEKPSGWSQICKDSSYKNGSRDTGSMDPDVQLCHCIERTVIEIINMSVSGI
LARP4B, Q92615, UniProt Q92615, whole entry: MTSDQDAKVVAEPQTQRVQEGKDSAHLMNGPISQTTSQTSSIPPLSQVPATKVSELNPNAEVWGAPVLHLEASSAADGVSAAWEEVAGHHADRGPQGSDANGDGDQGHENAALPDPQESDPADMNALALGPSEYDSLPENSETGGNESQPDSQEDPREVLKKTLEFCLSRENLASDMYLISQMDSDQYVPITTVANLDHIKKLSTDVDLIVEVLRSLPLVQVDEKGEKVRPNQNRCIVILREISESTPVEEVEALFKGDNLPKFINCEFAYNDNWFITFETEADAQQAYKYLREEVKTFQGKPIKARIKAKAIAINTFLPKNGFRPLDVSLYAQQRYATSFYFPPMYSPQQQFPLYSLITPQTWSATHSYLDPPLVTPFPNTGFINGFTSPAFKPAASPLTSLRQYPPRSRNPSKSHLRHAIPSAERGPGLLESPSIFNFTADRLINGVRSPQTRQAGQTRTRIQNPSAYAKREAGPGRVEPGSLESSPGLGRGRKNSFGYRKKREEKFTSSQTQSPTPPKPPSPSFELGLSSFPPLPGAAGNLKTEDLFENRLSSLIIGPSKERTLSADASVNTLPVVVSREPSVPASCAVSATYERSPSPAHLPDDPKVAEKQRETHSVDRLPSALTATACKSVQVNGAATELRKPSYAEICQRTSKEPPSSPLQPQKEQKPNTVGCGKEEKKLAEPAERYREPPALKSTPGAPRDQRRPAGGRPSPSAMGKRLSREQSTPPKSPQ
MED12, Q93074, UniProt Q93074, whole entry: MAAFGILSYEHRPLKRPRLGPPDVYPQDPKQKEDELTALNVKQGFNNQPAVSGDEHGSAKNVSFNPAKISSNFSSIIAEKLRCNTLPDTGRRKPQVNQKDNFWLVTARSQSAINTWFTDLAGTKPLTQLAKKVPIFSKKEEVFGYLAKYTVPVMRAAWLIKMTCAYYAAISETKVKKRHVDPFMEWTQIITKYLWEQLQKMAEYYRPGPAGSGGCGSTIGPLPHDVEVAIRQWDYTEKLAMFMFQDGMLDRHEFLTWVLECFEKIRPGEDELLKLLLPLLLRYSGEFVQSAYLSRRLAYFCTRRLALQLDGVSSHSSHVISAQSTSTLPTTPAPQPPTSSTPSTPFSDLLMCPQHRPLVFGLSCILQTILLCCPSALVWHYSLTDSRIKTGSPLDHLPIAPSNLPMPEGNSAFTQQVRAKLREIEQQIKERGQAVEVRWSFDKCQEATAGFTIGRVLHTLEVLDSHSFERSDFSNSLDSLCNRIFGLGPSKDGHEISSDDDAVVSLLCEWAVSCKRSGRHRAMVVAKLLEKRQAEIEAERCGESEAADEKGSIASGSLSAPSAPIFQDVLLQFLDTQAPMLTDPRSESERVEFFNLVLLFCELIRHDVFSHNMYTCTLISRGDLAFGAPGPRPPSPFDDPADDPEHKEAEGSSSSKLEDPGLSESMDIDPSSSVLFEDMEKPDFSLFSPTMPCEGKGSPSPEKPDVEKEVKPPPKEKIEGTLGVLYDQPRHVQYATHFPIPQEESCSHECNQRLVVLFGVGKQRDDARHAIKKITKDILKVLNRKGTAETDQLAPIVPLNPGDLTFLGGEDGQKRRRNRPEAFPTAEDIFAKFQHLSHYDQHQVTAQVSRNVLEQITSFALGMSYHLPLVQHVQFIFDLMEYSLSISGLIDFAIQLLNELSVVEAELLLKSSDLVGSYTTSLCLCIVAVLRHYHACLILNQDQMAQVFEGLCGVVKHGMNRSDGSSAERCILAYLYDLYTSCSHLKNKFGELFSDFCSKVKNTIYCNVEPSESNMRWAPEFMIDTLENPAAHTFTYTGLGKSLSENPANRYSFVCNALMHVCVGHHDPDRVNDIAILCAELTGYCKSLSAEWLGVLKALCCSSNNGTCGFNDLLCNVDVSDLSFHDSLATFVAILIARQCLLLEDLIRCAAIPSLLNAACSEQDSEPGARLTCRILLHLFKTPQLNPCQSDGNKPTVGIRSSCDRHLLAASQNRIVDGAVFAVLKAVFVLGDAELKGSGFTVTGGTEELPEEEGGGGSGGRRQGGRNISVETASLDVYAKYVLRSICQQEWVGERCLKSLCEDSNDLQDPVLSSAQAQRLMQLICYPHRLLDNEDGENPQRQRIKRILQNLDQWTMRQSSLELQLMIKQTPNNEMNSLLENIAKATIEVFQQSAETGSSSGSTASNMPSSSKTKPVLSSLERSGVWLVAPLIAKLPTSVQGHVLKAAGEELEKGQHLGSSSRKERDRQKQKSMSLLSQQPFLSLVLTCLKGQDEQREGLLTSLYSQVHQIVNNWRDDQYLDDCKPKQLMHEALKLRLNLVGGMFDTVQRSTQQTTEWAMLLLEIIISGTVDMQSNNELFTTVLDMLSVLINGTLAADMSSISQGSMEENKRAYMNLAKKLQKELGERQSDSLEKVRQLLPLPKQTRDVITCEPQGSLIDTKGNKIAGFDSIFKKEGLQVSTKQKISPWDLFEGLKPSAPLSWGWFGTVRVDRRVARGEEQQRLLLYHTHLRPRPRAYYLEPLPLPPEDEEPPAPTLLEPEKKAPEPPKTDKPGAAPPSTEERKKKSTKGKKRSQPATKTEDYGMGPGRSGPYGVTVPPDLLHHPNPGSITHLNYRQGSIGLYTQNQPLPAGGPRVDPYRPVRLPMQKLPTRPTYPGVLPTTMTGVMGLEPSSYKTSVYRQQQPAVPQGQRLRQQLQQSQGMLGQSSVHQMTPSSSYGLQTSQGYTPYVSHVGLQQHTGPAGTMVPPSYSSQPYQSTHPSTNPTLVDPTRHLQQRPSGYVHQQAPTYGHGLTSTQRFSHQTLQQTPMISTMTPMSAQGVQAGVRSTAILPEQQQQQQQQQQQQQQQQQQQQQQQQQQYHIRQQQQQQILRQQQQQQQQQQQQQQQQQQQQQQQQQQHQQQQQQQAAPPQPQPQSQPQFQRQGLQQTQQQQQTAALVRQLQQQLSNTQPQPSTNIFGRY
SET, Q01105, UniProt Q01105, whole entry: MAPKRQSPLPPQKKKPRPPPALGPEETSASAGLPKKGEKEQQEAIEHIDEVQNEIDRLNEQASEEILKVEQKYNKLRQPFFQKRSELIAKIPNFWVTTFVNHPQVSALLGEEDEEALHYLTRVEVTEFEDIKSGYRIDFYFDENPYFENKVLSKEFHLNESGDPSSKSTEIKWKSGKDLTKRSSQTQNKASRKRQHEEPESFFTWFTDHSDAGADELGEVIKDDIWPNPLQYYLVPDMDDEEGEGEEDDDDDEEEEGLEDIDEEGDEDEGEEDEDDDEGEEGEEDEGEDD

ABHD14B, Q96IU4 = biological target: ABHD14B, Q96IU4
Experimental: as §1

AGK, Q53H12 = biological target: AGK, Q53H12
Experimental: as §1

ALKBH5, Q6P6C2 = biological target: ALKBH5, Q6P6C2
Experimental: as §1

ANXA5, P08758 = biological target: ANXA5, P08758
Experimental: as §1

AP2A2, O94973 = biological target: AP2A2, O94973
Experimental: as §1

ATXN10, Q9UBB4 = biological target: ATXN10, Q9UBB4
Experimental: as §1

CAMP, P49913 = biological target: CAMP, P49913
Experimental: as §1

CBSL = biological target: CBSL
Experimental: as §1

CCT5, P48643 = biological target: CCT5, P48643
Experimental: as §1

CDC5L, Q99459 = biological target: CDC5L, Q99459
Experimental: as §1

COQ5, Q5HYK3 = biological target: COQ5, Q5HYK3
Experimental: as §1

CPSF7, Q8N684 = biological target: CPSF7, Q8N684
Experimental: as §1

CSTF1, Q05048 = biological target: CSTF1, Q05048
Experimental: as §1

DDX42, Q86XP3 = biological target: DDX42, Q86XP3
Experimental: as §1

DNAJB12, Q9NXW2 = biological target: DNAJB12, Q9NXW2
Experimental: as §1

DPM1, O60762 = biological target: DPM1, O60762
Experimental: as §1

HOMER3, Q9NSC5 = biological target: HOMER3, Q9NSC5
Experimental: as §1

IGF2BP2, Q9Y6M1 = biological target: IGF2BP2, Q9Y6M1
Experimental: as §1

IGHA1, P01876 = biological target: IGHA1, P01876
Experimental: as §1

INTS2, Q9H0H0 = biological target: INTS2, Q9H0H0
Experimental: as §1

LARP4B, Q92615 = biological target: LARP4B, Q92615
Experimental: as §1

MCRIP2, Q9BUT9 = biological target: MCRIP2, Q9BUT9
Experimental: as §1

MED12, Q93074 = biological target: MED12, Q93074
Experimental: as §1

NAE1, Q13564 = biological target: NAE1, Q13564
Experimental: as §1

NAMPT, P43490 = biological target: NAMPT, P43490
Experimental: as §1

NDUFS1, P28331 = biological target: NDUFS1, P28331
Experimental: as §1

NOM1, Q5C9Z4 = biological target: NOM1, Q5C9Z4
Experimental: as §1

NUP98, P52948 = biological target: NUP98, P52948
Experimental: as §1

PDK3, Q15120 = biological target: PDK3, Q15120
Experimental: as §1

PFKL, P17858 = biological target: PFKL, P17858
Experimental: as §1

PNO1, Q9NRX1 = biological target: PNO1, Q9NRX1
Experimental: as §1

RBM15, Q96T37 = biological target: RBM15, Q96T37
Experimental: as §1

SEC16A, O15027 = biological target: SEC16A, O15027
Experimental: as §1

SET, Q01105 = biological target: SET, Q01105
Experimental: as §1

SLC25A1, P53007 = biological target: SLC25A1, P53007
Experimental: as §1

SLIRP, Q9GZT3 = biological target: SLIRP, Q9GZT3
Experimental: as §1

SNX9, Q9Y5X1 = biological target: SNX9, Q9Y5X1
Experimental: as §1

[1] = substrate: SON, P18583
Experimental: as §1

SPART, Q8N0X7 = biological target: SPART, Q8N0X7
Experimental: as §1

TBCD, Q9BTW9 = biological target: TBCD, Q9BTW9
Experimental: as §1

TUBAL3, A6NHL2 = biological target: TUBAL3, A6NHL2
Experimental: as §1

UBE2S, Q16763 = biological target: UBE2S, Q16763
Experimental: as §1

VARS, P26640 = biological target: VARS, P26640
Experimental: as §1

XPO7, Q9UIA9 = biological target: XPO7, Q9UIA9
Experimental: as §1

YTHDC1, Q96MU7 = biological target: YTHDC1, Q96MU7
Experimental: as §1

ZC3H11A, O75152 = biological target: ZC3H11A, O75152
Experimental: as §1

ZNF317, Q96PQ6 = biological target: ZNF317, Q96PQ6
Experimental: as §1

AARAAGGSSPPGRPT [RAB12]
PRISMA enrichment of interactor (log2) (ABCE1, P61221): 5.65 | PRISMA enrichment of interactor (log2) (ABHD14B, Q96IU4): 6.13 | PRISMA enrichment of interactor (log2) (AGK, Q53H12): 5.77 | PRISMA enrichment of interactor (log2) (ALKBH5, Q6P6C2): 6.58 | PRISMA enrichment of interactor (log2) (ANXA5, P08758): 5.41 | PRISMA enrichment of interactor (log2) (AP2A2, O94973): 7.47 | PRISMA enrichment of interactor (log2) (ATXN10, Q9UBB4): 5.55 | PRISMA enrichment of interactor (log2) (CAMP, P49913): 7.71 | PRISMA enrichment of interactor (log2) (CBSL): 5.27 | PRISMA enrichment of interactor (log2) (CCT5, P48643): 4.8 | PRISMA enrichment of interactor (log2) (CDC5L, Q99459): 4.87 | PRISMA enrichment of interactor (log2) (COQ5, Q5HYK3): 3.81 | PRISMA enrichment of interactor (log2) (CPSF7, Q8N684): 4.27 | PRISMA enrichment of interactor (log2) (CSTF1, Q05048): 4.88 | PRISMA enrichment of interactor (log2) (DDX42, Q86XP3): 12.2 | PRISMA enrichment of interactor (log2) (DNAJB12, Q9NXW2): 6.98 | PRISMA enrichment of interactor (log2) (DPM1, O60762): 5.47 | PRISMA enrichment of interactor (log2) (HOMER3, Q9NSC5): 5.71 | PRISMA enrichment of interactor (log2) (IGF2BP2, Q9Y6M1): 6.25 | PRISMA enrichment of interactor (log2) (IGHA1, P01876): 4.08 | PRISMA enrichment of interactor (log2) (INTS2, Q9H0H0): 5.69 | PRISMA enrichment of interactor (log2) (LARP4B, Q92615): 7.77 | PRISMA enrichment of interactor (log2) (MCRIP2, Q9BUT9): 8.74 | PRISMA enrichment of interactor (log2) (MED12, Q93074): 5.45 | PRISMA enrichment of interactor (log2) (NAE1, Q13564): 4.05 | PRISMA enrichment of interactor (log2) (NAMPT, P43490): 6.62 | PRISMA enrichment of interactor (log2) (NDUFS1, P28331): 8.24 | PRISMA enrichment of interactor (log2) (NOM1, Q5C9Z4): 6.92 | PRISMA enrichment of interactor (log2) (NUP98, P52948): 5.69 | PRISMA enrichment of interactor (log2) (PDK3, Q15120): 5.19 | PRISMA enrichment of interactor (log2) (PFKL, P17858): 11 | PRISMA enrichment of interactor (log2) (PNO1, Q9NRX1): 7.26 | PRISMA enrichment of interactor (log2) (RBM15, Q96T37): 5.36 | PRISMA enrichment of interactor (log2) (SEC16A, O15027): 9.28 | PRISMA enrichment of interactor (log2) (SET, Q01105): 5.27 | PRISMA enrichment of interactor (log2) (SLC25A1, P53007): 13.7 | PRISMA enrichment of interactor (log2) (SLIRP, Q9GZT3): 4.89 | PRISMA enrichment of interactor (log2) (SNX9, Q9Y5X1): 3.99 | PRISMA enrichment of interactor (log2) [1]: 4.29 | PRISMA enrichment of interactor (log2) (SPART, Q8N0X7): 4.22 | PRISMA enrichment of interactor (log2) (TBCD, Q9BTW9): 10.3 | PRISMA enrichment of interactor (log2) (TUBAL3, A6NHL2): 3.95 | PRISMA enrichment of interactor (log2) (UBE2S, Q16763): 7.48 | PRISMA enrichment of interactor (log2) (VARS, P26640): 5.37 | PRISMA enrichment of interactor (log2) (XPO7, Q9UIA9): 6.38 | PRISMA enrichment of interactor (log2) (YTHDC1, Q96MU7): 8.99 | PRISMA enrichment of interactor (log2) (ZC3H11A, O75152): 8.33 | PRISMA enrichment of interactor (log2) (ZNF317, Q96PQ6): 4.47
